Reference: PMC12666738

By UniProt entry, the sequences of proteins in these tests, tags left out. Where a name states a change or a piece, a line headed by the entry shows the natural chain unless it says otherwise. Residues count along the entry.
UniProt O14936: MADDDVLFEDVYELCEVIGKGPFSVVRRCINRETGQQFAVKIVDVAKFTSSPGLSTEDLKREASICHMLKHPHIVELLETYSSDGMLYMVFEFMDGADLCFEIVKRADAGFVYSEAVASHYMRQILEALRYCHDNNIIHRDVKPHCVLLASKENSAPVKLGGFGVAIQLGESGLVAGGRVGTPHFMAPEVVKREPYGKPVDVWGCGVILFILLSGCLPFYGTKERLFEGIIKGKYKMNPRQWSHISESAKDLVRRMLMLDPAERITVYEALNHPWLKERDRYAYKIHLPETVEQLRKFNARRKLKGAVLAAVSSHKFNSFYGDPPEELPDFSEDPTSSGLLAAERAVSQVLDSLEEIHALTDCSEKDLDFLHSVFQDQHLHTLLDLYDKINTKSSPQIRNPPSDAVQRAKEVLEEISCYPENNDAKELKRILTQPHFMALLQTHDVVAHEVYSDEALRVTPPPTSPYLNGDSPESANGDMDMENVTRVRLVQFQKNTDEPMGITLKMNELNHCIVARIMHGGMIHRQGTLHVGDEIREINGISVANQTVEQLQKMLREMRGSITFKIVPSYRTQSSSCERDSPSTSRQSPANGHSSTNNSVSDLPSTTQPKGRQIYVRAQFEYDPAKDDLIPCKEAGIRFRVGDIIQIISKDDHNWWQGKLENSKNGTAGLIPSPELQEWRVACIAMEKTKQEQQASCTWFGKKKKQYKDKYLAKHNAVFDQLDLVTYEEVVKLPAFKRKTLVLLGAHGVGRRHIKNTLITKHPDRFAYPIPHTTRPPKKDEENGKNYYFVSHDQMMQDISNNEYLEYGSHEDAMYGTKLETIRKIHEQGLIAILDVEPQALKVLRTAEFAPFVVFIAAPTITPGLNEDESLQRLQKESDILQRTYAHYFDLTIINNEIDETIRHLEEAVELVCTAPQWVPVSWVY
UniProt Q63373, residues 47-468: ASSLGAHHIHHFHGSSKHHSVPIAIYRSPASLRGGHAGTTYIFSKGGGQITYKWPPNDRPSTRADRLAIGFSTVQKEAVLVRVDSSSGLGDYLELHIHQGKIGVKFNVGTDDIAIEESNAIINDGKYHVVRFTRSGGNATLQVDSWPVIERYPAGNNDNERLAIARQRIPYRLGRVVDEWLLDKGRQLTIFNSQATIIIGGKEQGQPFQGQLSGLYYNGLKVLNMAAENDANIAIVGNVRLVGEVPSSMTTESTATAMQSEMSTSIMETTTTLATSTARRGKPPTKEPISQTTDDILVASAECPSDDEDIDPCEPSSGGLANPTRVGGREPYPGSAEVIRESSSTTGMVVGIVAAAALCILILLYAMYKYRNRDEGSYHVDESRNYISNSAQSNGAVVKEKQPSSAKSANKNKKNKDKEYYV
UniProt O75334: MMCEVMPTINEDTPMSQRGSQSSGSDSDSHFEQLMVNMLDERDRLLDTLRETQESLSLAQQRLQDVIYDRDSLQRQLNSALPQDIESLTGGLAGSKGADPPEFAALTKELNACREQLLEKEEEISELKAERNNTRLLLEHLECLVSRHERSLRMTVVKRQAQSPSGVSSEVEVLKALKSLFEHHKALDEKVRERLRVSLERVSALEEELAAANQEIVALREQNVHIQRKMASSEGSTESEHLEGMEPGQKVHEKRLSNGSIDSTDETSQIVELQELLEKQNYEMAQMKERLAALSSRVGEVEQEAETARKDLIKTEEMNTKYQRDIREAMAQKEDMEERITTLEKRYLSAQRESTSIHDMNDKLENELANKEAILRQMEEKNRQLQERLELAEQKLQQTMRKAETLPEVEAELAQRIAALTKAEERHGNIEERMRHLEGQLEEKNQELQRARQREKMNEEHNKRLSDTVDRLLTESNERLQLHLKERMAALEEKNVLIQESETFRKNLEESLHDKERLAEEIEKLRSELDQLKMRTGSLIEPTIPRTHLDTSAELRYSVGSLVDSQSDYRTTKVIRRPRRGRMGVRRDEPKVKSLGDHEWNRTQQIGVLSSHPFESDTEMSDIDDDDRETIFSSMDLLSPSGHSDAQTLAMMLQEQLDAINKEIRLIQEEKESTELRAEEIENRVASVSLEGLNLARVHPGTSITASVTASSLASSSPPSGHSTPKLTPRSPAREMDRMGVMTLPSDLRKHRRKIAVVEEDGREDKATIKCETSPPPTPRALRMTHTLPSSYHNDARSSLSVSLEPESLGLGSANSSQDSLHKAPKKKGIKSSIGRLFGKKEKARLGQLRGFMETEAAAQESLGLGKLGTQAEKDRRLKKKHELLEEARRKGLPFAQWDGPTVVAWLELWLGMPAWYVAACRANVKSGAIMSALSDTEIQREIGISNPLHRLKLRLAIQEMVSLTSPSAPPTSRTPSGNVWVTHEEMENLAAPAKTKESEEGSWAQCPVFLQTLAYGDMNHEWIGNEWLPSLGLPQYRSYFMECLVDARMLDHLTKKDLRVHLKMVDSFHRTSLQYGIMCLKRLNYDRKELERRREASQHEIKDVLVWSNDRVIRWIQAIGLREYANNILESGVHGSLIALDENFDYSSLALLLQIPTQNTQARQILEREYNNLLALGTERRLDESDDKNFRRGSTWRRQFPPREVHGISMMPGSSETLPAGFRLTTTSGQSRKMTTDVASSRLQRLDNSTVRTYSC

B1: FLAG-tagged CNTNAP2 (contactin associated protein 2) (protein, UniProt Q9UHC6 28-1331)
chain: APSTSQKCDEPLVSGLPHVAFSSSSSISGSYSPGYAKINKRGGAGGWSPSDSDHYQWLQVDFGNRKQISAIATQGRYSSSDWVTQYRMLYSDTGRNWKPYHQDGNIWAFPGNINSDGVVRHELQHPIIARYVRIVPLDWNGEGRIGLRIEVYGCSYWADVINFDGHVVLPYRFRNKKMKTLKDVIALNFKTSESEGVILHGEGQQGDYITLELKKAKLVLSLNLGSNQLGPIYGHTSVMTGSLLDDHHWHSVVIERQGRSINLTLDRSMQHFRTNGEFDYLDLDYEITFGGIPFSGKPSSSSRKNFKGCMESINYNGVNITDLARRKKLEPSNVGNLSFSCVEPYTVPVFFNATSYLEVPGRLNQDLFSVSFQFRTWNPNGLLVFSHFADNLGNVEIDLTESKVGVHINITQTKMSQIDISSGSGLNDGQWHEVRFLAKENFAILTIDGDEASAVRTNSPLQVKTGEKYFFGGFLNQMNNSSHSVLQPSFQGCMQLIQVDDQLVNLYEVAQRKPGSFANVSIDMCAIIDRCVPNHCEHGGKCSQTWDSFKCTCDETGYSGATCHNSIYEPSCEAYKHLGQTSNYYWIDPDGSGPLGPLKVYCNMTEDKVWTIVSHDLQMQTPVVGYNPEKYSVTQLVYSASMDQISAITDSAEYCEQYVSYFCKMSRLLNTPDGSPYTWWVGKANEKHYYWGGSGPGIQKCACGIERNCTDPKYYCNCDADYKQWRKDAGFLSYKDHLPVSQVVVGDTDRQGSEAKLSVGPLRCQGDRNYWNAASFPNPSSYLHFSTFQGETSADISFYFKTLTPWGVFLENMGKEDFIKLELKSATEVSFSFDVGNGPVEIVVRSPTPLNDDQWHRVTAERNVKQASLQVDRLPQQIRKAPTEGHTRLELYSQLFVGGAGGQQGFLGCIRSLRMNGVTLDLEERAKVTSGFISGCSGHCTSYGTNCENGGKCLERYHGYSCDCSNTAYDGTFCNKDVGAFFEEGMWLRYNFQAPATNARDSSSRVDNAPDQQNSHPDLAQEEIRFSFSTTKAPCILLYISSFTTDFLAVLVKPTGSLQIRYNLGGTREPYNIDVDHRNMANGQPHSVNITRHEKTIFLKLDHYPSVSYHLPSSSDTLFNSPKSLFLGKVIETGKIDQEIHKYNTPGFTGCLSRVQFNQIAPLKAALRQTNASAHVHIQGELVESNCGASPLTLSPMSSATDPWHLDHLDSASADFPYNPGQGQAIRNGVNRNSAIIGGVIAVVIFTILCTLVFLIRYMFRHKGTYHTNEAKGAESAESADAAIMNNDPNFTETIDESKKEWLI

Experiments:
Assay in all cases: co-IP; HEK293T cells cotransfected, lysed in RIPA buffer 24 h after transfection; mRFP-tagged CASK precipitated with magnetic RFP-Trap beads, 2 h at 4°C, five washes in RIPA; Western blot
[1] = molecular target: mRFP-tagged CASK D624E/P625L (human) (UniProt O14936)
[2] = molecular target: mRFP-tagged CASK G521V (human) (UniProt O14936)
[3] = molecular target: mRFP-tagged CASK L354P (human) (UniProt O14936)
[4] = molecular target: mRFP-tagged CASK P673L (human) (UniProt O14936)
[5] = molecular target: mRFP-tagged CASK W680S (human) (UniProt O14936)
[6] = molecular target: mRFP-tagged CASK Y723C (human) (UniProt O14936)
[7] = molecular target: mRFP-tagged CASK I672V (human) (UniProt O14936)
[8] = molecular target: mRFP-tagged CASK L354P (human) (UniProt O14936); remark: listed apart in the source
[9] = molecular target: mRFP-tagged CASK P673L (human) (UniProt O14936); remark: listed apart in the source
[10] = molecular target: mRFP-tagged CASK Y723C (human) (UniProt O14936); remark: listed apart in the source

| Molecule | binding [1] | binding [2] | binding [3] | binding [4] | binding [5] | binding [6] | binding [7] | binding [8] | binding [9] | binding [10] |
| --- | --- | --- | --- | --- | --- | --- | --- | --- | --- | --- |
| HA-tagged Neurexin-1β (from UniProt Q63373 47-468) | no binding | no binding | binds | no binding | binds | no binding | – | – | – | – |
| HA-tagged Liprin-α2 (from UniProt O75334 1-1257) | – | – | – | binds | – | – | binds | – | – | – |
| B1 | – | – | – | – | – | – | – | binds | no binding | no binding |

Read-outs that look alike come from different tables or passages of the source. Results are given in words; binding and its absence hold for the method and conditions named. Binding seen in cells or lysates may run through a third protein. For some assays here: Binding calls can cover weak binding; strength is not graded here. For some assays here: Sequences can lack the tags named with a protein.
